# Reference: the supplement of paper PMC12819154, “High-throughput peptide-centric local stability assay extends protein–ligand identification to membrane proteins, tissues and bacteria” (Nature Structural & Molecular Biology, 2025)
# By UniProt entry, the sequences of proteins in these tests, tags left out. Where a name states a change or a piece, a line headed by the entry shows the natural chain unless it says otherwise.
# UniProt P51955: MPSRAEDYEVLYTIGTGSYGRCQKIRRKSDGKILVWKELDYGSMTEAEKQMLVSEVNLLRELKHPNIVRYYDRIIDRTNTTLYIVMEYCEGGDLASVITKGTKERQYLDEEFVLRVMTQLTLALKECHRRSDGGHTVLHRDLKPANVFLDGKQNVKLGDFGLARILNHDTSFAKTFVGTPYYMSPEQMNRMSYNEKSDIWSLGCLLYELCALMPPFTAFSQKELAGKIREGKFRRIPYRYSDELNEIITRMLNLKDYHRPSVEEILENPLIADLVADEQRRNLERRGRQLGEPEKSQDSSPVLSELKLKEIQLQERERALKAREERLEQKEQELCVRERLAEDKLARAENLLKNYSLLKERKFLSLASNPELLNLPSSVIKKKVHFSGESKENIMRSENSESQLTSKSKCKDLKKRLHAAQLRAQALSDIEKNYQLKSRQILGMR
# UniProt P50851: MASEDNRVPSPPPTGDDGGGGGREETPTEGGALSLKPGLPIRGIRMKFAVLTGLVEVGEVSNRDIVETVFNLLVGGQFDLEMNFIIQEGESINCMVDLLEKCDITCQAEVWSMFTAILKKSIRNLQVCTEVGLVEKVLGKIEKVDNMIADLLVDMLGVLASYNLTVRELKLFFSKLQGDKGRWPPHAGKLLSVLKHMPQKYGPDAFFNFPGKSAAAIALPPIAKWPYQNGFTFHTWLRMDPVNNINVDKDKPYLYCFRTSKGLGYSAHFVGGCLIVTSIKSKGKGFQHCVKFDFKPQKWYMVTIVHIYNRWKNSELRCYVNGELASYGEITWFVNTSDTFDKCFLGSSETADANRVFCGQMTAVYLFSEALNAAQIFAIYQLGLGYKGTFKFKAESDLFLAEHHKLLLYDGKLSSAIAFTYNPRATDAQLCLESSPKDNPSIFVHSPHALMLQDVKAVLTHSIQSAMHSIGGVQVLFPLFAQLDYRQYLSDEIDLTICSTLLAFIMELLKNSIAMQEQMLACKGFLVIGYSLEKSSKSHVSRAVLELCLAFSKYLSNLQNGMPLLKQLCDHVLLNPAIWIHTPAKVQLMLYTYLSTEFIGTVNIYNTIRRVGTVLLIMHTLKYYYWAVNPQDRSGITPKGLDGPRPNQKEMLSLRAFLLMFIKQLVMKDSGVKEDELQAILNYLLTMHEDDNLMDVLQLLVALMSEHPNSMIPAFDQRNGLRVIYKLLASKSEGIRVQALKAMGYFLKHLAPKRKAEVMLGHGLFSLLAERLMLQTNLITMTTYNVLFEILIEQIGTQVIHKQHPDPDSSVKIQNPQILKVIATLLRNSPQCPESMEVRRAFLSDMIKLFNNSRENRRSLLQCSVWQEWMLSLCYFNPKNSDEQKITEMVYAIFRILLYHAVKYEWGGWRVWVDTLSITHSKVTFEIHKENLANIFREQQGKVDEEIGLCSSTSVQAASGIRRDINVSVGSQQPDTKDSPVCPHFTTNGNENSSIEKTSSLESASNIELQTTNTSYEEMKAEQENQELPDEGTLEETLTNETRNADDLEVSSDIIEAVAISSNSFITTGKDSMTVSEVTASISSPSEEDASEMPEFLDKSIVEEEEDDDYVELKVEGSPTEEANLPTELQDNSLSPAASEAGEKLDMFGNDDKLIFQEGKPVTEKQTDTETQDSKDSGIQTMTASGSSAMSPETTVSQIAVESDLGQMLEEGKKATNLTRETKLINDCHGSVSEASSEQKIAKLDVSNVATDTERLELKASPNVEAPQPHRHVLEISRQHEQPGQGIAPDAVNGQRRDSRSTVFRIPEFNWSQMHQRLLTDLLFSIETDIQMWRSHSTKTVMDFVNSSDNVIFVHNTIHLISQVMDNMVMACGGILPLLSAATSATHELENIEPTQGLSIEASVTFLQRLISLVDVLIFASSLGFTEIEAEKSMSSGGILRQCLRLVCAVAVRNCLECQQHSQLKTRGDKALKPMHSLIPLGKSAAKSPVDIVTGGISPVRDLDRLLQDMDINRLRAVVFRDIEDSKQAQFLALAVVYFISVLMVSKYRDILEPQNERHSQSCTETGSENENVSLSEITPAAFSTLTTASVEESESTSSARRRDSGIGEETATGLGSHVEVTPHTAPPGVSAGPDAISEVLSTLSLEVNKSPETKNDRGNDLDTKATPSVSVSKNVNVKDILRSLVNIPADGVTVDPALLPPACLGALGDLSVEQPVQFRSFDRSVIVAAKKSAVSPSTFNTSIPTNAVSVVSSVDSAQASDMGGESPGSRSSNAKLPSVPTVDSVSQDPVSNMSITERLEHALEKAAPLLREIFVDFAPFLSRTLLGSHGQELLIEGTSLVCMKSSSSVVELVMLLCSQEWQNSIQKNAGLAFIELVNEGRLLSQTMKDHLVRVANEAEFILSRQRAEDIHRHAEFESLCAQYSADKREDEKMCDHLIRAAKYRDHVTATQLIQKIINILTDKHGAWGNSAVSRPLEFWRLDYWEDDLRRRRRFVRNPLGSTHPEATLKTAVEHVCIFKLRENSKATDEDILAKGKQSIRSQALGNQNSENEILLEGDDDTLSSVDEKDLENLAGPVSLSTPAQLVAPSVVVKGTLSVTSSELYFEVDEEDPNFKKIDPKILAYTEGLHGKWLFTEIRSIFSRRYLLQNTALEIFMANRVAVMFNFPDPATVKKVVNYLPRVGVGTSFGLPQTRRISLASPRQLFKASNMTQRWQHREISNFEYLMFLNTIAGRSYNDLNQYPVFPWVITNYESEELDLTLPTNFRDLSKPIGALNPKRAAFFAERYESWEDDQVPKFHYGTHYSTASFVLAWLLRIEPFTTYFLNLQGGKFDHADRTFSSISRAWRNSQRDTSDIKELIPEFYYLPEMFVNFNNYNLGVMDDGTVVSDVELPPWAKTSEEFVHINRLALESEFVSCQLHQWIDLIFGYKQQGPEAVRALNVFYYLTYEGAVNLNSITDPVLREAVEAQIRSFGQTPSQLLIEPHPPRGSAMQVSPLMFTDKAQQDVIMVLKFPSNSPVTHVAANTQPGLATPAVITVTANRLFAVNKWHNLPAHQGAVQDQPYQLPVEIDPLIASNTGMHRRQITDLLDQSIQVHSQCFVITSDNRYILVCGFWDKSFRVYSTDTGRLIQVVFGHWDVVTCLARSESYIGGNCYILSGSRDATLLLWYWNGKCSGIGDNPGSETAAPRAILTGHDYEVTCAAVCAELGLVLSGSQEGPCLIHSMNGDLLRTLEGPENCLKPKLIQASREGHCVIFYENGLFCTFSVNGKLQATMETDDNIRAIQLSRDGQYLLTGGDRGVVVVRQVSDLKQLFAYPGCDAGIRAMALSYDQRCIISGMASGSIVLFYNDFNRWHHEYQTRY
# UniProt P53609, whole entry, looked up: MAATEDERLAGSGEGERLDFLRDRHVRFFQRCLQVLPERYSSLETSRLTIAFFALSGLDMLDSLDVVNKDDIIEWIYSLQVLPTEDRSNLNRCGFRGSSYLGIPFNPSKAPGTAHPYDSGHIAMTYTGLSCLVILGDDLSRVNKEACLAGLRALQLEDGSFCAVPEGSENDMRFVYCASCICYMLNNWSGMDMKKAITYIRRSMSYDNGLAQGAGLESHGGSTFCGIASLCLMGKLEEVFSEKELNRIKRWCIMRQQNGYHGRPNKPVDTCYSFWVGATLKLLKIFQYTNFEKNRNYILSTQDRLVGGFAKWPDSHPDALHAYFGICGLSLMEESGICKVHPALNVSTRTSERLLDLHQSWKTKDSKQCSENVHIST
# UniProt P50479: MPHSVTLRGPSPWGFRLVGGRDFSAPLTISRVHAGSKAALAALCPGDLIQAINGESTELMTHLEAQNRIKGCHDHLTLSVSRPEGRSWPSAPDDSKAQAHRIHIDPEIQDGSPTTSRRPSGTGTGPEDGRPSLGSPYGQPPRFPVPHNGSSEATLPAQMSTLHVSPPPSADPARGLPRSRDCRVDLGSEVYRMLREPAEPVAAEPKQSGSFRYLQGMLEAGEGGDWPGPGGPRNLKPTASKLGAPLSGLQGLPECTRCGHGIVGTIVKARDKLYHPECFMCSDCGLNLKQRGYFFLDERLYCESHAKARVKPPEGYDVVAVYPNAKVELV
# UniProt P53004: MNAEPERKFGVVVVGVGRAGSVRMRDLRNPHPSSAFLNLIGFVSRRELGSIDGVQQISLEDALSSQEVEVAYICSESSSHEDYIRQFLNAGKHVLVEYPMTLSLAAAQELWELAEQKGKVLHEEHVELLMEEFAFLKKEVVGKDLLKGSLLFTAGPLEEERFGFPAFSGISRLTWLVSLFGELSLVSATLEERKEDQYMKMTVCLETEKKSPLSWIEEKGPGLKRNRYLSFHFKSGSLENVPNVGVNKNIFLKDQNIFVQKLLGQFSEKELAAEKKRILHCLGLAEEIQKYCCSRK
# UniProt P48723: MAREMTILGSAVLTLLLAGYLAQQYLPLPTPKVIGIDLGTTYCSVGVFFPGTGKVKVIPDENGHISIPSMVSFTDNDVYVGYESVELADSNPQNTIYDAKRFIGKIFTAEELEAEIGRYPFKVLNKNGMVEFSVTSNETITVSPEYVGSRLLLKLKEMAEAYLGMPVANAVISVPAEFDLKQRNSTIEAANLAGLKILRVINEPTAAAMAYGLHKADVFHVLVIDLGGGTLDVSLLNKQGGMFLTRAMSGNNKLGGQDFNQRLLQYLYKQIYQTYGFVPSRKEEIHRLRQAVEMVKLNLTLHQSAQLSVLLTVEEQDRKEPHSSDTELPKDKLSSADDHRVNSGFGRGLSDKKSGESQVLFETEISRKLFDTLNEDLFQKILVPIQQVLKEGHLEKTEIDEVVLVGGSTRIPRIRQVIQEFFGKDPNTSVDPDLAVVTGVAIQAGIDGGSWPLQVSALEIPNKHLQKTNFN
# UniProt P47756, whole entry: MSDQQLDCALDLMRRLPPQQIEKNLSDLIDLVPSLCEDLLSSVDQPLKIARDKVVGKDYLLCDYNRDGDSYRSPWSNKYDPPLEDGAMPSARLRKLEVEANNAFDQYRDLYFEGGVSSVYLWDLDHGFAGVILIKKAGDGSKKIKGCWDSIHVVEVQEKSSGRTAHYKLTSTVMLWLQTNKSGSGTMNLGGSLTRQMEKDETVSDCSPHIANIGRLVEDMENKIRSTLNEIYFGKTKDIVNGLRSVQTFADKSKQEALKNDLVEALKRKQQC
# UniProt P51809, whole entry: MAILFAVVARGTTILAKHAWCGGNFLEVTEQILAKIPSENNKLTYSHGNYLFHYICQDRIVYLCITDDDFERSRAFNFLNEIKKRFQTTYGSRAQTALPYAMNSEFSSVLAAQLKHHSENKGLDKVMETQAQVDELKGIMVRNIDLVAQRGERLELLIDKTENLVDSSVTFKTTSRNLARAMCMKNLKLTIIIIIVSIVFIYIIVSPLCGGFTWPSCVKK
# UniProt P52566: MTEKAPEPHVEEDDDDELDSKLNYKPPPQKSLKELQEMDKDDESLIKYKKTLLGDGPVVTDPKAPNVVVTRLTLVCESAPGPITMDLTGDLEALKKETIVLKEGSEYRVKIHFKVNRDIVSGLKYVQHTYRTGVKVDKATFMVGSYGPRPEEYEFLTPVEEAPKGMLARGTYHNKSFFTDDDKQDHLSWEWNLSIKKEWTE
# UniProt P49754: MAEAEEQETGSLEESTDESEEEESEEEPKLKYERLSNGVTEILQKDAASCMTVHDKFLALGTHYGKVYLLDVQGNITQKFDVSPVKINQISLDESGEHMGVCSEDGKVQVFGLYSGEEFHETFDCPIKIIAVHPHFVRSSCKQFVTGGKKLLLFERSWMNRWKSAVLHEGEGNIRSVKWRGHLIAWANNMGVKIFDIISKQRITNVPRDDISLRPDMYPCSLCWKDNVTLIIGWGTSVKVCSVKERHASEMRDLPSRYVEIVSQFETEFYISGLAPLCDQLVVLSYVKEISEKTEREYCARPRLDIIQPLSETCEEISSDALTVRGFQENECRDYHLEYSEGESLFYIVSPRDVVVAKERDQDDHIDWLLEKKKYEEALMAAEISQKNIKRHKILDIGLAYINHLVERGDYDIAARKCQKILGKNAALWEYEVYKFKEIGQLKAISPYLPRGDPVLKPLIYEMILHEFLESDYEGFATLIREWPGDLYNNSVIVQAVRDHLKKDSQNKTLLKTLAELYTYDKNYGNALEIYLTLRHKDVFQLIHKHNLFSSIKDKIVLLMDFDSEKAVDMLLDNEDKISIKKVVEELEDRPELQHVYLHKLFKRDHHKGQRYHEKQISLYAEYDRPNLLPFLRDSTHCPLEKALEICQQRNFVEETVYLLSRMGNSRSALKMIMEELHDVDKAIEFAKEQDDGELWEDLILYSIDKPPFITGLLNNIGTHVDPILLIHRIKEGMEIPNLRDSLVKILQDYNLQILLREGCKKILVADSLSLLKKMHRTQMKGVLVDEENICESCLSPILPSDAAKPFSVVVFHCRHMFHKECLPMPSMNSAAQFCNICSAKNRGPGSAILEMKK
# UniProt P48201: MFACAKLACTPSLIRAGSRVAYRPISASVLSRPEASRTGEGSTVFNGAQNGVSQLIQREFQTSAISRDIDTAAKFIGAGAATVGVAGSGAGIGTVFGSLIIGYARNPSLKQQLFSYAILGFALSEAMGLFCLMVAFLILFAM
# UniProt P47224: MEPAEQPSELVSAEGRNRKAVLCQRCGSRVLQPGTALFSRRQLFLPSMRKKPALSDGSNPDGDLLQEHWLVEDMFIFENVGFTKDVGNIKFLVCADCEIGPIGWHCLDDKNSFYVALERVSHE
# The list shows a part of the results. Most values lie at the level of the controls, where differences are scatter.
# Compound: CN[C@@H]1C[C@H]2O[C@@](C)([C@@H]1OC)n1c3ccccc3c3c4c(c5c6ccccc6n2c5c31)C(=O)NC4 [staurosporine]
# Assay: log2 fold change of tryptic peptide abundance, ligand vs vehicle (limited proteolysis) (log2 ratio); higher = more trypsin-susceptible (destabilized)
# Settings: ligand concentration: 20 uM; sample: K562 cleared lysate; digestion: 4 min, 22 C (HT-PELSA RT4min, Orbitrap Astral)
row,Target,log2 fold change
1,"UniProt P51955 (peptide sequence: SDGGHTVLHR, peptide start residue: 131)",1.05
2,"LRBA (peptide sequence: LINDCHGSVSEASSEQK, peptide start residue: 1224) (UniProt P50851)",-0.22
3,"PGGT1B (peptide sequence: QCSENVHIST, peptide start residue: 368) (UniProt P53609)",-0.0484
4,"UniProt P53779 (peptide sequence: VIEQLGTPCPEFMK, peptide start residue: 237)",-0.861
5,"NSF (peptide sequence: TTIAQQVK, peptide start residue: 692) (UniProt P46459)",-0.203
6,"UniProt P53990 (peptide sequence: RFEELKK, peptide start residue: 356)",0.147
7,"PDLIM4 (peptide sequence: LYCESHAK, peptide start residue: 300) (UniProt P50479)",0.169
8,"BLVRA (peptide sequence: SPLSWIEEK, peptide start residue: 211) (UniProt P53004)",0.416
9,"HSPA13 (peptide sequence: VINEPTAAAMAYGLHK, peptide start residue: 200) (UniProt P48723)",-0.508
10,"RPS5 (peptide sequence: KKDELER, peptide start residue: 192) (UniProt P46782)",0.192
11,"CAPZB (peptide sequence: NDLVEALKR, peptide start residue: 260) (UniProt P47756)",0.1
12,"VAMP7 (peptide sequence: GLDKVMETQAQVDELK, peptide start residue: 122) (UniProt P51809)",-0.294
13,"CENPF (peptide sequence: LQLLSNEIMDKDR, peptide start residue: 739) (UniProt P49454)",-0.673
14,"FASN (peptide sequence: DPETLVGYSMVGCQR, peptide start residue: 123) (UniProt P49327)",-0.6
15,"ARHGDIB (peptide sequence: SLKELQEMDKDDESLIK, peptide start residue: 31) (UniProt P52566)",-0.316
16,"GSTM5 (peptide sequence: LGLDFPNLPYLIDGAHK, peptide start residue: 53) (UniProt P46439)",-0.0855
17,"RANBP2 (peptide sequence: LYLDGSEK, peptide start residue: 2688) (UniProt P49792)",0.399
18,"VPS41 (peptide sequence: DSTHCPLEK, peptide start residue: 634) (UniProt P49754)",0.692
19,"PPP5C (peptide sequence: AKDYENAIK, peptide start residue: 41) (UniProt P53041)",0.135
20,"UniProt P48201 (peptide sequence: LACTPSLIR, peptide start residue: 7)",0.395
21,"RABIF (peptide sequence: VLQPGTALFSR, peptide start residue: 30) (UniProt P47224)",0.14
22,"UniProt P50120 (peptide sequence: KIAVRLTQTK, peptide start residue: 32)",0.245
23,"CLCN2 (peptide sequence: AAAAAEEGMEPR, peptide start residue: 2) (UniProt P51788)",0.139
24,"ACLY (peptide sequence: TASFSESR, peptide start residue: 453) (UniProt P53396)",-0.129

# Given bar-delimited: part of the list above
row | Target | log2 fold change
1 | UniProt P51955 (peptide sequence: SDGGHTVLHR, peptide start residue: 131) | 1.05
6 | UniProt P53990 (peptide sequence: RFEELKK, peptide start residue: 356) | 0.147
